Assays:
[1] = Method detection limits for volatile organic analytes in water (Table 6); details: 5 mL water, 4 ppb; for Method Detection Limit, External Standard Method: average of three nonconsecutive-day studies; for Method Detection Limit, Internal Standard Method: d3-vinylchloride internal standard
[2] = Method detection limits for volatile organic analytes in soil (Table 7); details: 4 ppb, average of three nonconsecutive-day studies, values marked ^c: MDL exceed concentration studies
[3] = Recovery of volatile organic analytes from spiked water and cod liver oil/water emulsion (Table 3); details: 10 min, condenser -10° C., ± one sigma; for Recovery, H2O/Oil 20 mL: 1 g cod liver oil and 20 ml water emulsion; for Recovery, H2O/Oil 5 mL: 1 gram cod liver oil and 5 ml water emulsion; for Recovery, Water 5 mL: 5 mL water, relative to internal standard d3-vinylchloride; for Recovery, Water 20 mL: 20 mL water, relative to d3-vinylchloride
[4] = 1 gram cod liver oil, composite of 25, 50 and 200 ppb spikes, 10 min, condenser -10° C.
[5] = Recovery of volatile organic analytes from spiked soil (Table 5); details: 50 ppb, condenser -10° C.; for Recovery, Soil/Oil Water: 5 g soil + 1 g cod liver oil + water slurry; for Recovery, Soil/Oil: 5 g soil + 1 g cod liver oil, spiked using 0.2 ml water; for Recovery, Soil/Water: 5 g soil + 5 ml water slurry, 10 min

Structure (SMILES) | Method Detection Limit, External Standard Method [1] [PPb] | Method Detection Limit, Internal Standard Method [1] [PPb] | MDL, External Standard Method [2] [ppb] | MDL, Internal Standard Method [2] [ppb] | Recovery, H2O/Oil 20 mL [3] [%] | Recovery, H2O/Oil 5 mL [3] [%] | Recovery, Water 5 mL [3] [%] | Recovery, Water 20 mL [3] [%] | Oil Recovery [4] [%] | Recovery, Soil/Oil Water [5] [%] | Recovery, Soil/Oil [5] [%] | Recovery, Soil/Water [5] [%]
ClC=C(Cl)Cl [Trichloroethene] | 2.5 | 1.7 | 3.0 | 1.7 | 62 ± 9 | 61 ± 9 | 86 ± 8 | 82 ± 18 | 50 ± 7 | 48 ± 7 | 76 ± 16 | 52 ± 16
CBr [Bromomethane] | 2.5 | 1.9 | 4.9 | 4.8 | 90 ± 23 | 120 ± 20 | 105 ± 9 | 99 ± 21 | 87 ± 15 | 82 ± 23 | 81 ± 24 | 63 ± 33
Cl/C=C\CCl [cis-1,3-Dichloropropene] | 2.1 | 1.7 | 2.5 | 1.6 | 57 ± 12 | 61 ± 9 | 94 ± 12 | 87 ± 19 | 42 ± 6 | 53 ± 5 | 73 ± 17 | 64 ± 20
CC(Cl)Cl [1,1-Dichloroethane] | 2.3 | 2.4 | 1.7 | 2.1 | 84 ± 12 | 108 ± 18 | 96 ± 11 | 98 ± 14 | 93 ± 8 | 68 ± 4 | 101 ± 21 | 67 ± 19
Clc1ccccc1 [Chlorobenzene] | 2.4 | 1.9 | 2.6 | 1.3 | 43 ± 10 | 40 ± 9 | 88 ± 12 | 86 ± 21 | 24 ± 4 | 38 ± 4 | 47 ± 17 | 61 ± 18

— patent US5411707A, “Vacuum extractor incorporating a condenser column” (priority 1994, dated 1995)
